Measurements reported in PubChem BioAssay AID504774 (Drosophila RNAi Screening Center, 2011)

Screen: 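Knock-downs that shift viability of MMS-exposed cells relative to untreated ones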 (primary screen)
Cells: Drosophila Kc167 cells
Knock-down reagent: long dsRNA against Drosophila genes, about 0.25 µg dsRNA per well
Duration: about 6 days: 3 days knock-down, then 3 days with or without MMS
Challenge: methyl methanesulphonate 0.004% (w/v) for 3 days after knock-down
Measurement: 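ATP-dependent luminescence as a measure of live cells in MMS-exposed wells, quantile normalised within each plate, with replicate values also given as a mean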
Scale: mean viability with MMS and viability with MMS: higher = more surviving cells after MMS
In all, the deposit lists about 23,000 reagents; shown is an unselected part of those with a known target gene and a result. 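Values are quantile-normalised luminescence on an arbitrary scale; higher means more cells surviving MMS.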 Names joined by + are all predicted targets of the reagent. Not all columns of the deposit are shown.

CG32104 [DRSC10127]
- mean viability with MMS: 3.34e6
- viability with MMS, replicate 1: 3.87e6

CG32104 [DRSC10128]
- mean viability with MMS: 3.31e6
- viability with MMS, replicate 1: 3.83e6

eIF3f1 [DRSC12328]
- mean viability with MMS: 3.08e6
- viability with MMS, replicate 1: 3.62e6

Klf15 [DRSC17742]
- mean viability with MMS: 3.61e6
- viability with MMS, replicate 1: 4.06e6

CG14440 [DRSC17933]
- mean viability with MMS: 2.94e6
- viability with MMS, replicate 1: 3.52e6

CG14440 [DRSC23008]
- mean viability with MMS: 3.50e6
- viability with MMS, replicate 1: 4.10e6

CG14440 [DRSC23009]
- mean viability with MMS: 3.56e6
- viability with MMS, replicate 1: 4.29e6

l(2)gd1 [DRSC02773]
- mean viability with MMS: 3.51e6
- viability with MMS, replicate 1: 4.08e6

Tpr2 [DRSC03461]
- mean viability with MMS: 3.78e6
- viability with MMS, replicate 1: 4.31e6

CG5139 [DRSC00681]
- mean viability with MMS: 3.64e6
- viability with MMS, replicate 1: 4.09e6

CG34286 [DRSC13372]
- mean viability with MMS: 3.58e6
- viability with MMS, replicate 1: 4.15e6

CG34286 [DRSC21790]
- mean viability with MMS: 3.51e6
- viability with MMS, replicate 1: 3.92e6

A portion of the results above, as a working copy:
CG34286 [DRSC13372]
- mean viability with MMS: 3.58e6
- viability with MMS, replicate 1: 4.15e6

CG34286 [DRSC21790]
- mean viability with MMS: 3.51e6
- viability with MMS, replicate 1: 3.92e6

More results follow:
CG14855 [DRSC14979]
- mean viability with MMS: 3.74e6
- viability with MMS, replicate 1: 4.25e6

CG11307 [DRSC11648]
- mean viability with MMS: 3.47e6
- viability with MMS, replicate 1: 3.88e6

BORCS7 + CG13430 [DRSC06392]
- mean viability with MMS: 3.60e6
- viability with MMS, replicate 1: 4.12e6

BORCS7 + CG13430 [DRSC06707]
- mean viability with MMS: 3.40e6
- viability with MMS, replicate 1: 3.72e6

CG11454 [DRSC00310]
- mean viability with MMS: 3.31e6
- viability with MMS, replicate 1: 3.69e6

Gr94a [DRSC13597]
- mean viability with MMS: 3.35e6
- viability with MMS, replicate 1: 3.67e6

CG1239 [DRSC12204]
- mean viability with MMS: 3.52e6
- viability with MMS, replicate 1: 4.03e6

CG43672 [DRSC19452]
- mean viability with MMS: 3.67e6
- viability with MMS, replicate 1: 4.10e6

CG43672 [DRSC20108]
- mean viability with MMS: 3.42e6
- viability with MMS, replicate 1: 4.01e6

SkpA [DRSC18833]
- mean viability with MMS: 3.17e6
- viability with MMS, replicate 1: 3.73e6

CG42232 [DRSC15018]
- mean viability with MMS: 3.43e6
- viability with MMS, replicate 1: 3.88e6

CG42232 [DRSC15019]
- mean viability with MMS: 3.56e6
- viability with MMS, replicate 1: 3.99e6
